This is an account of results in paper PMC12370185.

This is one part of the list. For some of these results: At the low end of the ranking the order means little.

Holding throughout (conditions): 10 mM Tris-Cl pH 7.5, 50 mM NaCl, 1 mM DTT, 0.25 mg/ml BSA, 2 mM MgCl2, 0.025% Nonidet P-40, 5% glycerol; 28 nM nucleosome library; 10 min on ice then 30 min …; high values mean tight binding; double strand, one strand shown
One experiment relates to KLF4 + histone octamer. The experiment in a line: EMSA with sequencing.
Experiment [1] has as its system SOX2 + histone octamer. The experiment in a line: EMSA with sequencing.
The next experiment concerns OCT4 + histone octamer. The experiment in a line: Pioneer-seq (competitive nucleosome EMSA with sequencing).
Experiment [2] deals with c-MYC + MAX + histone octamer. Described as above.
The subject of experiment [3] is c-MYC + MAX + histone octamer. The experiment in a line: EMSA with sequencing.
Experiment [4] relates to SOX2 + histone octamer. Briefly: Pioneer-seq (competitive nucleosome EMSA with sequencing).

Turning to “GATGGACCCTATACGCGGCGTATCCTAGAACTGCACTTTCTATCAACTTATGTTTCCCTGTGAAGAAAACCTTGTCTCAGCGAGGTGTGGCTGTTCTCAGAGTACTGTGTGTATATGCACGTGGGTGGGTGTGGGTGTGCATATATGTGTAATGGGGACGAACGAGTATTCCTGTACCTTCTTGTTGAGTAGAAGAAAAACATCAAGTTCTGCCAGTCGGATAGTGTTCC”, the binding signal (log2 relative supershift) was 1.56 with KLF4 + histone octamer, 0.153 with SOX2 + histone octamer [1], -0.843 in the experiment with OCT4 + histone octamer and -0.284 in experiment [2].

Take “GATGGACCCTATACGCGGCAGACCAGAACTGAATGAAGTGAAAACATTTTCAAATGCAAGTGGCAGGCAAACTGCCCCACCCTATCCTGGAAGACAATACAAAGAGGGATGGGGGAGAGAAGAAAATAAGTGATTCTCCTACACACCCAGCCCATGCCATGCTAATCCCTTTTTGAGGACCACTGGTTTTAAACAAACTCTCTTTTGCTGTGCCAGTCGGATAGTGTTCC”: the binding signal (log2 relative supershift) in the experiment on KLF4 + histone octamer was 2.19; in the experiment on SOX2 + histone octamer [1] it was 0.543; with OCT4 + histone octamer, -0.114; in experiment [2], -0.315.

“GATGGACCCTATACGCGGCCCTCCCTGGGCATACCTGGTGGCATCAGGCCTGATCCTCTACAATGTCTGTCCCTGCCCTTGCCTGCTACTTCCAGGCCTACCTCCAGCCCAGACCTGCCCAGGCCTGCCCAGGCCCTGCTCTACCCTGATGCTCTGTGGCTCTGTTCCTGGGACTCTTCCTGGGAGACAGAAGGGAGATGAGAGCTCAAGTGCCAGTCGGATAGTGTTCC”: the binding signal (log2 relative supershift) with KLF4 + histone octamer was 1.94; in experiment [3], 0.2; with OCT4 + histone octamer it was -0.687; with SOX2 + histone octamer [4] it was -0.527.

With “GATGGACCCTATACGCGGCCCTGGAGAATCTCTGACCCTCCCCACAAGTGTTTACATCAGATGCTTTTGTAAACATGAAGGAACCTTCCCAGGGCCTTGTCTGGGCTTGCCCACAATGTACTGGAGGCCCGCCTGTGCACTGGGAGAATGGGGTGGAGCCACTGGGATTTGCGCCTTATGCAGAGGGGAGGAGCCTGGCCTCTTCAGCTCTGCCAGTCGGATAGTGTTCC”, the binding signal (log2 relative supershift) in the experiment with KLF4 + histone octamer was 2.6; in the experiment with SOX2 + histone octamer [1], 0.147; in the experiment on OCT4 + histone octamer, -0.31; in experiment [2], -0.512.

“GATGGACCCTATACGCGGCGGGAATACGTGCATGAGTGGGGTGTGTGTGCATGTGTGTGAATGTGTGTGTGCATGTGCAAAGCAACTCTGTGTATGAGGCAAACCTGAGTGTGTGCGGTGCGTGTGAATGCCTGCATGTGCGCGTGCGTGTGTGAAGAGTCTGCGTGGGGGAACACGTGTGTAAAGGCATGGATGTGCACGTGTGTGTGCTGCCAGTCGGATAGTGTTCC”: the binding signal (log2 relative supershift) with KLF4 + histone octamer was 2.05; in experiment [3] it was 1.21; in the experiment on OCT4 + histone octamer, -0.796; with SOX2 + histone octamer [4] it was -0.118.

As to “GATGGACCCTATACGCGGCTTAGATAAACAAAATCTGGAGTATCTGAAGGGTGTGTAAGGCAGAAGTCATGTGAGGTCTGCACACAGCACACTGCTACCTACAGTGTTGGGGGAGTGGCATTGAGCACCATTATCATGCAAGGTGGAGGTGGGTGCCAATAATCACCACTATCATGCAAGGCTAGGGTGGGTGAGGGCAGAAGCCACTCTTGCCAGTCGGATAGTGTTCC”, the binding signal (log2 relative supershift) in the experiment with KLF4 + histone octamer is 2.62; with SOX2 + histone octamer [1], 0.363; with OCT4 + histone octamer, -0.372; in experiment [2], -0.0639.

On to “GATGGACCCTATACGCGGCAAGAATAGATGTTCTGGTAAAGGTCCCTGAGAGACACTAAGGTTGAATCTTGCTTGGGAGACATCCTGTGTATGTGCAGCAGATGGCAGTCTGCATTGGAATGGATCACAAGTCCAGTTTGTGCCACTTTTGTTCCGCTGTATGGTATGGTAAATTACAACCAGGGGGGCATAACCAGTTACAGCACTGCCTGCCAGTCGGATAGTGTTCC”, for which the binding signal (log2 relative supershift) in the experiment on KLF4 + histone octamer was 1.32; in the experiment on SOX2 + histone octamer [1] it was 0.701; with OCT4 + histone octamer it was -0.0738; in experiment [2] it was -0.0284.

For “GATGGACCCTATACGCGGCGCAGTAAAATCAACAGCTATGGTTGTGATGGAAGAAGAAAGACATAACCATTACCCAGAAGAGGGTGGATAGTAGTGTTTAGTTTTATTATTAGCAGCACTATTTACATAACAGCACATGTGCATGCCTGCCTGTCCATATAGAGCTATGGGCTTGGGGTGGGGCAAGAGAGAGTCATTGCTTGTAGAATTTGCCAGTCGGATAGTGTTCC”, the binding signal (log2 relative supershift) in the experiment on KLF4 + histone octamer was 1.83; in the experiment on SOX2 + histone octamer [1] it was 0.088; in the experiment with OCT4 + histone octamer it was -0.265; in experiment [2], -0.132.

With “GATGGACCCTATACGCGGCTCAGAACCAGATGCACAAAGAACAAACAAGTTTCCCAGCAGGACTCAAAATAGAAGGGATGGTGACTGCATGCCTTACCATTCGGGATCCTCTTCTTCCCGGAGAACTCCGCGCAGGCAGGTCTGTACCTGCTTAGAGGCAGCCTGTCTGTTGAGCAGCCCATCCTCAGTGAGGGACGATAAGAGACTGGGTGCCAGTCGGATAGTGTTCC”, the binding signal (log2 relative supershift) in the experiment on KLF4 + histone octamer was 1.07; in the experiment on SOX2 + histone octamer [1], 1.31; in the experiment with OCT4 + histone octamer, -1; in experiment [2], -0.161.

As to “GATGGACCCTATACGCGGCAGCTGCATTTGGGACCTTATGGGAAAGTCTGTAAAATTTGCTGTCTTTATTTGCCCTTTAGAGAAAACAGTTTGCTGACCCCTGCACTACAGAGGTTAAGGAGTCCTCCCTCCCTCCCAAGGACCTGTATAGGCACGAAGGCCAGAGGAGCTGTTCTTATCTATGAAAGCTTCCTGGAGTGGATTTCGTGGTGCCAGTCGGATAGTGTTCC”, the binding signal (log2 relative supershift) was 0.806 with KLF4 + histone octamer, 0.413 with SOX2 + histone octamer [1], -0.309 with OCT4 + histone octamer and -0.07 in experiment [2].
